Measurements reported in PubChem BioAssay AID1224826 (NIAID, 2016).

- Purpose: 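Genes that change LPS-induced Tnf promoter activity in mouse macrophages when knocked down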 (primary screen)
- System: RAW264.7 G9 macrophages from mouse bearing reporters for p65 (GFP) and the Tnf promoter (mCherry)
- Reagent: siRNA pool against mouse genes, 100 nM
- Time to read-out: 16 h of LPS stimulation, after 2 days of siRNA transfection
- Treatment: bacterial lipopolysaccharide (Salmonella minnesota R595), 10 ng/ml
- Measurement: 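Imaged Tnf reporter mCherry in nuclei, minus background, normalised per plate to the median and expressed as robust z-scores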
- Direction: Tnf reporter robust z-score: higher = stronger Tnf promoter reporter signal after LPS
- Hit rule: 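Called active when robust z-score is at most -1.3, matching the median of the Tlr4 knock-down control, or over 3; control wells and wells with under 50 cells never active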
- Meaning of the calls: active = Tnf reporter clearly lowered or raised; inactive = no clear change in Tnf reporter
The deposit covers about 17,000 reagents; below is an unselected part. About 1,110 of them (6.6%) were called active. 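Active means lowered or raised reporter signal; replicate intensities are raw and not normalised per plate.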 Further read-outs or replicates are left out here.

| gene knocked down | PubChem SID | Tnf reporter robust z-score | fewer than 50 cells in well | activity call |
| --- | --- | --- | --- | --- |
| Zfp189 (GeneID 230162) | SID315478768 | 0.5 | enough cells in well | inactive |
| Entpd1 (GeneID 12495) | SID315465854 | 0.72 | enough cells in well | inactive |
| Pdia3 (GeneID 14827) | SID315467043 | -0.54 | enough cells in well | inactive |
| 5830416A07RIK | SID315482018 | -1.3 | enough cells in well | active |
| Vmn1r216 (GeneID 171279) | SID315477352 | 1.84 | enough cells in well | inactive |
| Myo5b (GeneID 17919) | SID315468077 | -1.5 | enough cells in well | active |
| Zdhhc21 (GeneID 68268) | SID315473481 | -0.1 | enough cells in well | inactive |
| Csl (GeneID 71832) | SID315474341 | -0.52 | enough cells in well | inactive |
| Bloc1s3 (GeneID 232946) | SID315479025 | 0.3 | enough cells in well | inactive |
| Dock6 (GeneID 319899) | SID315481190 | 1.42 | enough cells in well | inactive |
| Slc26a11 (GeneID 268512) | SID315480778 | – | fewer than 50 cells per well; well left out of calls | inactive |
| Fxr1 (GeneID 14359) | SID315466771 | 1.4 | enough cells in well | inactive |
| Nfya (GeneID 18044) | SID315468165 | -0.91 | enough cells in well | inactive |
| Tnni2 (GeneID 21953) | SID315469782 | 0.15 | enough cells in well | inactive |
| Nanos1 (GeneID 332397) | SID315481650 | -1.03 | enough cells in well | inactive |
| Spidr (GeneID 224008) | SID315478310 | – | fewer than 50 cells per well; well left out of calls | inactive |
| Or13ae2 (GeneID 258393) | SID315480078 | -0.77 | enough cells in well | inactive |
| Gcnt1 (GeneID 14537) | SID315466859 | -0.69 | enough cells in well | inactive |
| Col15a1 (GeneID 12819) | SID315466050 | -0.75 | enough cells in well | inactive |
| Trpc6 (GeneID 22068) | SID315469840 | -0.69 | enough cells in well | inactive |
| Kcna10 (GeneID 242151) | SID315479600 | 0.34 | enough cells in well | inactive |
| Crb1 (GeneID 170788) | SID315477242 | -0.95 | enough cells in well | inactive |
| Or7g18 (GeneID 258559) | SID315480226 | 2.52 | enough cells in well | inactive |
| Zer1 (GeneID 227693) | SID315478585 | – | fewer than 50 cells per well; well left out of calls | inactive |
| Wasl (GeneID 73178) | SID315474688 | 0.09 | enough cells in well | inactive |
| Vps72 (GeneID 21427) | SID315469626 | 0.22 | enough cells in well | inactive |
| Sdr9c7 (GeneID 70061) | SID315473968 | 0.1 | enough cells in well | inactive |
| Nsfl1c (GeneID 386649) | SID315481845 | – | fewer than 50 cells per well; well left out of calls | inactive |
| Aatk (GeneID 11302) | SID315465228 | -0.25 | enough cells in well | inactive |
| Tas2r136 (GeneID 353165) | SID315481699 | 0.81 | enough cells in well | inactive |
| Or5ac17 (GeneID 404310) | SID315481927 | 2.16 | enough cells in well | inactive |
| Ifna9 (GeneID 15972) | SID315467392 | 0.35 | enough cells in well | inactive |
| Tmed5 (GeneID 73130) | SID315474678 | – | fewer than 50 cells per well; well left out of calls | inactive |
| Chst15 (GeneID 77590) | SID315475484 | – | fewer than 50 cells per well; well left out of calls | inactive |
| Eid2 (GeneID 386655) | SID315481846 | 0.65 | enough cells in well | inactive |

4 of these entries, reformatted.
5830416A07RIK [SID315482018]
- Tnf reporter robust z-score: -1.3
- fewer than 50 cells in well: enough cells in well
- activity call: active

Vmn1r216 (GeneID 171279) [SID315477352]
- Tnf reporter robust z-score: 1.84
- fewer than 50 cells in well: enough cells in well
- activity call: inactive

Myo5b (GeneID 17919) [SID315468077]
- Tnf reporter robust z-score: -1.5
- fewer than 50 cells in well: enough cells in well
- activity call: active

Zdhhc21 (GeneID 68268) [SID315473481]
- Tnf reporter robust z-score: -0.1
- fewer than 50 cells in well: enough cells in well
- activity call: inactive

The listing continues:
| gene knocked down | PubChem SID | Tnf reporter robust z-score | fewer than 50 cells in well | activity call |
| --- | --- | --- | --- | --- |
| Ncbp2as2 (GeneID 106264) | SID315476532 | -0.98 | enough cells in well | inactive |
| Gata6 (GeneID 14465) | SID315466841 | -0.61 | enough cells in well | inactive |
| Ric8b (GeneID 237422) | SID315479347 | 0.05 | enough cells in well | inactive |
| Zfp526 (GeneID 210172) | SID315477635 | 0.17 | enough cells in well | inactive |
| Cmtm2b (GeneID 75502) | SID315475135 | 0.57 | enough cells in well | inactive |
| Nudt7 (GeneID 67528) | SID315473081 | -0.35 | enough cells in well | inactive |
| Tspan3 (GeneID 56434) | SID315471532 | -0.22 | enough cells in well | inactive |
| Plcxd3 (GeneID 239318) | SID315479431 | -0.86 | enough cells in well | inactive |
| Serpinb13 (GeneID 241196) | SID315479554 | -0.04 | enough cells in well | inactive |
| Tpm2 (GeneID 22004) | SID315469805 | 0.54 | enough cells in well | inactive |
| 4933409G03Rik (GeneID 227998) | SID315478614 | 5.16 | enough cells in well | active |
| Hbq1a (GeneID 216635) | SID315478018 | 2.17 | enough cells in well | inactive |
| Rnasel (GeneID 24014) | SID315470287 | -0.17 | enough cells in well | inactive |
| Mdn1 (GeneID 100019) | SID315476202 | 0.39 | enough cells in well | inactive |
| Urod (GeneID 22275) | SID315469952 | 0.2 | enough cells in well | inactive |
| Zfp318 (GeneID 57908) | SID315471843 | 0.67 | enough cells in well | inactive |
| Rgs2 (GeneID 19735) | SID315468968 | -0.82 | enough cells in well | inactive |
| Igfbp5 (GeneID 16011) | SID315467413 | -1.35 | enough cells in well | active |
| Nfe2l3 (GeneID 18025) | SID315468148 | -0.44 | enough cells in well | inactive |
| Hfm1 (GeneID 330149) | SID315481572 | 0.3 | enough cells in well | inactive |
| Phgr1 (GeneID 53906) | SID315471134 | – | fewer than 50 cells per well; well left out of calls | inactive |
| Slc25a38 (GeneID 208638) | SID315477542 | 0.42 | enough cells in well | inactive |
| Ckap2l (GeneID 70466) | SID315474062 | – | fewer than 50 cells per well; well left out of calls | inactive |
